The test relates to EV71 virus strain Shenzhen/120F1/09. Put plainly: EV71 in-vitro cytopathic effect (CPE) test. It is filed as cell-based, RD cells of human rhabdomyoma. As to conditions: Enterovirus A, EV71, RD, 72 h, read-out: EC50 by EC71 CPE test, EV71. Here is the method: Test of EV71 In-Vitro Cytopathic Effect (CPE) To test the in-vitro antiviral activity and cytotoxicity of a compound to HFMD virus EV71 by means of cytopathic effect (CPE) test. […] Cell line: RD cells of human rhabdomyoma • 3. Cell culture media: DMEM medium added with 10% serum, Penicillin/Streptomycin and L-[…]×) • 4. […] Cell inoculation: digest off the RD cells from the attached state, then dilute them with culture medium to a density of 80000/ml and inoculate 100 μl into the micro wells the 96-well plate. • 2. Dilution of compound: • Step 1: prepare the dry powder of a compound to test into a 10 mM solution in DMSO. Then dilute the compound by three times to eight concentration points. Dilute the reference compounds with the same method. • Step 2: further dilute the diluted solution of the compound in DMSO with cell culture medium. Add 10 μl DMSO solution for each well into 240 μl culture medium. • 3. Add the diluted compound solution by 50 μl each well into the 96-well plate inoculated with cells (double holes, final concentration of DMSO is 1%). • 4. Dilution of virus: dilute EV71 virus solution by 10000 times to a concentration of 100 TCID50/50 μl/. Add the diluted virus solution by 50 μl each well into the 96-well plate. […] Use ELIASA to read the absorbancy at the wavelength of 450 nm and 630 nm. • 7.

As to `CO/N=C1\CCc2cc(OCCCCCN3CCN(c4ccnc(N)c4)S3(=O)=O)ccc21` [Embodiment 57, (E)-2-(2-amino-pyridin-4-yl)-5-(5-((1-(ethoxy-imino)-2,3-dihydro-1H-inden-5-yl)-oxy)-pentyl)-1,2,5-thiadiazolidine-1,1-dioxide], the half-maximal effective concentration (EC50) is below 50 nM.
